In this test the target is T1, Limbin/EVC-2 (human) (UniProt Q86UK5).
T1 sequence (looked up): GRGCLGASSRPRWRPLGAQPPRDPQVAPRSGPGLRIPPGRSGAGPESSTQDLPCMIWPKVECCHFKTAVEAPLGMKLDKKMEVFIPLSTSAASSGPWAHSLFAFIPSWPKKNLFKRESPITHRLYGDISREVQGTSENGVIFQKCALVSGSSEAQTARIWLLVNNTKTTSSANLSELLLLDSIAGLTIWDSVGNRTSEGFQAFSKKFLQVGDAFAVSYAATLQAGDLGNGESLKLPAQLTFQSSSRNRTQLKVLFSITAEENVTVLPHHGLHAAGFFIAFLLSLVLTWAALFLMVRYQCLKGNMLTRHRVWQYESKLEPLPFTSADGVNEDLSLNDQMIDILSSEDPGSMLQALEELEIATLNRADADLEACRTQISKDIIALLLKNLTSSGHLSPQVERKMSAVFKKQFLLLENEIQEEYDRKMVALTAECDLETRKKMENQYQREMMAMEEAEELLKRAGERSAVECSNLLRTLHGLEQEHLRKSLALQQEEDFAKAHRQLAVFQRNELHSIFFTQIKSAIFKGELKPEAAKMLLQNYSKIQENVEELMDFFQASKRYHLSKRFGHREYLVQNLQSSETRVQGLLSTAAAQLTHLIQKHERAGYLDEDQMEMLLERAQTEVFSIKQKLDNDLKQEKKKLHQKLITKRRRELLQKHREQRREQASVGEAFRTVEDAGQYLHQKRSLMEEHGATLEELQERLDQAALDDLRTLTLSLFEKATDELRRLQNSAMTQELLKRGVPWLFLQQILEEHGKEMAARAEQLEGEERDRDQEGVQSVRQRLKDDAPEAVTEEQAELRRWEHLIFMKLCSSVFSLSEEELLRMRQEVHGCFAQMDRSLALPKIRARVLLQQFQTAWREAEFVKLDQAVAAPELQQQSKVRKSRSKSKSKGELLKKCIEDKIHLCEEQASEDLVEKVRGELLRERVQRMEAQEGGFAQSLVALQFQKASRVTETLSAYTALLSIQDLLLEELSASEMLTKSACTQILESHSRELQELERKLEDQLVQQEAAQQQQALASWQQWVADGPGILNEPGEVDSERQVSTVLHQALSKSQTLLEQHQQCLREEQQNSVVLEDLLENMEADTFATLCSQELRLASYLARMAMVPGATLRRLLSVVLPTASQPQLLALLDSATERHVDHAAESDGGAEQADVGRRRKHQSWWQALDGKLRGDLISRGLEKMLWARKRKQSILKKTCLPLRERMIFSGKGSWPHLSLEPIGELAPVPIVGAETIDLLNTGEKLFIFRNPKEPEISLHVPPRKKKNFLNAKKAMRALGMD
Put plainly: antigen identified by probing a human fetal brain cDNA expression library with the scFv; flow cytometry on MSCs. Background: In flow cytometry, cells or beads pass a laser one at a time.

No constants are given. Whether binding was seen depends on the method and setting. Some entries that bind do so weakly or less than the wild type.

B1: recombinant scFv TMSC3 (scFv)
scFv: ALTQPSSVSANLGGTVEITCSGGSGSYGWFQQKSPGSAPVTVIYESNKRPSDIPSRFSGSKSGSTGTLTITGVQAEDEAVYFCGSRDSSGSAYAFATGTTLTVLGQSSRSSTVTLDESGGGLQAPGGALSLVCKASGFTFSSYCMQWVRQAPGKGLEFVAGIDDDGSWTAYGAAVKGRATILRDNGQSTVRLQLNNLRAEDTATYYCAKTAGGSYYGCENIDAWGHGTEVIVSSTSGQAGQHHHHHHGAYPYDVPDYAS
With B1, the binding result is “binds”.

For the origin of these results see patent US20100062038A1.
